Data from PMC12494820, “Predicting input signals of transcription factors in Escherichia coli” (Molecular Systems Biology, 2025).
The exact form of at least one protein or probe is not confirmed. At least one verdict rests on a figure or table, not on a statement of the authors.

Protein sequences, listed by entry. Tags and fused reporters are not part of them. Lines headed by an entry give the natural chain unless they say otherwise; changes in a name come on top.
UniProt P10151: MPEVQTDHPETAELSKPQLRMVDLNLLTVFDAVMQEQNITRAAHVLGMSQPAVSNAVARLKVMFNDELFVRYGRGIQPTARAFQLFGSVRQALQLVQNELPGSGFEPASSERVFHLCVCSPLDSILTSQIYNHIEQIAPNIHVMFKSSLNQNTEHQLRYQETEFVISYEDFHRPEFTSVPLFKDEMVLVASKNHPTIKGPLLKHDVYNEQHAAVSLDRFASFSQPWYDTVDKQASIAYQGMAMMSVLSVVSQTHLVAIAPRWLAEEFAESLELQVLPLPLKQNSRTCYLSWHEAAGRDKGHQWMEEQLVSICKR

Target: LeuO (Escherichia coli) (UniProt P10151)
Experiment: EMSA
Conditions: EMSA: 10 mM Tris-HCl, 50 mM KCl, 5 mM MgCl2, 5% glycerol, 0.1 mg/ml BSA, pH 7.5, 500 ng salmon sperm DNA in 20 µl, 15 min at room temperature, gel 0.5x TBE at 4 °C, recombinant protein, label: Cy5 at 5' end of forward primer, probe letters rebuilt from the primers and the genome

**Q.** What does the source list for “GGAATGAGTCATTTACCACAGCATAATAATCCATAATGTTTTTGTTGCGAAAACAATCTAATCATAACTACCGCGAATACTCAATCATCTACAAAATGGATTAAATGTGCTTATTTAATAATTAATTTATATATTTAATGCATTAATTCTTAACATTAATTGATCAATAATATTCACCAAATCAATATCAAAAAAAATCGCAAAACATATAATTCAATACAAATCATCAGGATAGGTTTTGCAACGCGTGCATTTTGTCCCCTTTTTCCTCGTTGATTAGATGCAAAAATTTATGCTGAAATATGTCAACCGATGAAAAGCGTCGG (double strand) [leuLABCD promoter region fragment]”?
**A.** binding result (10 mM 2-isopropylmalate, binding significantly enhanced): binds; binding result (10 mM 3-isopropylmalate, no significant enhancement): binds; binding result (10 mM 3-methyl-2-oxobutanoate, no significant enhancement): binds; binding result (10 mM pyruvate, no significant enhancement): binds; half-maximal binding (no metabolite, 25 nM LeuO is the concentration used, chosen as about half of DNA bound): 25 nM
